Source: US20160243230A1
Residue numbers refer to the chain shown, from its start. These are yes or no findings as the source states them, for the method shown. Binding seen in cells or lysates may run through a third protein. Some entries that bind do so weakly or less than the wild type.

Protein sequences, listed by entry. Tags and fused reporters are not part of them. Residues count along the entry.
UniProt P05067, residues 672-711: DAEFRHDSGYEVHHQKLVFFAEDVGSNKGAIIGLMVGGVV
UniProt P10997, residues 34-70: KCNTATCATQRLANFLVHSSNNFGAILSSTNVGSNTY

B1: peptide p66 (11-1F4 peptope) (peptide)
peptide: KAQKAQAKQAKQAQKAQKAQAKQAKQAQKAQKAQAKQAKQSVTVVTKHYAAFPENLLI
B2: peptide p5+14 (peptide)
peptide: KAQKAQAKQAKQAQKAQKAQAKQAKQAQKAQKAQAKQAKQ
B3: peptope p75 (peptide)
peptide: GGGYSKAQKAQAKQAKQAQKAQKAQAKQAKQAQHEDT
B4: peptope p76 (peptide)
peptide: GGGYSKAQKAQAKQAKQAQKAQKAQAKQAKQGGGHEDT
B5: peptope p77 (peptide)
peptide: B4 peptide with G33P
B6: peptope p78 (peptide)
peptide: B4 peptide with G32V, G33T, G34V

target: synthetic Aβ(1-40) amyloid fibrils (UniProt P05067); assay: pulldown with 125I-peptide, 0.15 M and 1.0 M NaCl

Binder	binding
B1	binds
B2	binds

target: synthetic islet amyloid polypeptide (IAPP) fibrils (UniProt P10997); assay: pulldown with 125I-peptide, 0.15 M and 1.0 M NaCl

Binder	binding
B1	binds
B2	binds

target: synthetic Aβ(1-40) amyloid fibrils (UniProt P05067); assay: pulldown, fibrils pre-incubated with peptope, detected with 125I-7D8

Binder	binding
B3	binds
B4	binds
B5	binds
B6	binds

target: synthetic islet amyloid polypeptide (IAPP) fibrils (UniProt P10997); assay: as above

Binder	binding
B3	binds
B4	binds
B5	binds
B6	binds
